Laboratory results as given in patent publication US20220332799A1, “HERV INHIBITORS FOR USE IN TREATING TAUOPATHIES” (Deutsches Zentrum Für Neurodegenerative Erkrankungen E.V. …, priority 2019, published 2022).
Entries after “also recorded” stand apart in the source; their conditions may differ.

Tested on: N2a NM-HA^agg s2E
Experiment: Nanoparticle measurement of EVs released by donor cells (ZetaView)
Assay type: cell-based, mouse
Details: donor cells 10 μM, 3 d; vs DMSO

CC(C)CN(C[C@@H](O)[C@H](Cc1ccccc1)NC(=O)O[C@H]1CCOC1)S(=O)(=O)c1ccc(N)cc1 [Amprenavir]
secreted particle numbers: without affecting secreted particle numbers; also recorded: comparable amounts of particles as DMSO-treated cells
